Earlier results in US9149468B2, “Multicomponent crystals made ([2-amino-6-(4-fluoro-benzylamino)-pyridin-3-yl]-carbamic acid ethyl ester and 2-[2-[(2,6-dichlorphenyl)-amino]-phenyl]-acetic acid” (TEVA GmbH, priority 2010, dated 2015).
For at least one compound, name, drawing or mass did not settle the structure.

Details: animal experiments; only upon very high dosages; cited from earlier work

CCOC(=O)Nc1ccc(NCc2ccc(F)cc2)nc1N [flupirtine]
dosage at which a significant anti-inflammatory action has been observed: > 30 mg per kg body weight
